This passage reports binding results from PMC11856406.

The chains behind the UniProt entries cited, without tags or fusion partners.
UniProt B2RWS6: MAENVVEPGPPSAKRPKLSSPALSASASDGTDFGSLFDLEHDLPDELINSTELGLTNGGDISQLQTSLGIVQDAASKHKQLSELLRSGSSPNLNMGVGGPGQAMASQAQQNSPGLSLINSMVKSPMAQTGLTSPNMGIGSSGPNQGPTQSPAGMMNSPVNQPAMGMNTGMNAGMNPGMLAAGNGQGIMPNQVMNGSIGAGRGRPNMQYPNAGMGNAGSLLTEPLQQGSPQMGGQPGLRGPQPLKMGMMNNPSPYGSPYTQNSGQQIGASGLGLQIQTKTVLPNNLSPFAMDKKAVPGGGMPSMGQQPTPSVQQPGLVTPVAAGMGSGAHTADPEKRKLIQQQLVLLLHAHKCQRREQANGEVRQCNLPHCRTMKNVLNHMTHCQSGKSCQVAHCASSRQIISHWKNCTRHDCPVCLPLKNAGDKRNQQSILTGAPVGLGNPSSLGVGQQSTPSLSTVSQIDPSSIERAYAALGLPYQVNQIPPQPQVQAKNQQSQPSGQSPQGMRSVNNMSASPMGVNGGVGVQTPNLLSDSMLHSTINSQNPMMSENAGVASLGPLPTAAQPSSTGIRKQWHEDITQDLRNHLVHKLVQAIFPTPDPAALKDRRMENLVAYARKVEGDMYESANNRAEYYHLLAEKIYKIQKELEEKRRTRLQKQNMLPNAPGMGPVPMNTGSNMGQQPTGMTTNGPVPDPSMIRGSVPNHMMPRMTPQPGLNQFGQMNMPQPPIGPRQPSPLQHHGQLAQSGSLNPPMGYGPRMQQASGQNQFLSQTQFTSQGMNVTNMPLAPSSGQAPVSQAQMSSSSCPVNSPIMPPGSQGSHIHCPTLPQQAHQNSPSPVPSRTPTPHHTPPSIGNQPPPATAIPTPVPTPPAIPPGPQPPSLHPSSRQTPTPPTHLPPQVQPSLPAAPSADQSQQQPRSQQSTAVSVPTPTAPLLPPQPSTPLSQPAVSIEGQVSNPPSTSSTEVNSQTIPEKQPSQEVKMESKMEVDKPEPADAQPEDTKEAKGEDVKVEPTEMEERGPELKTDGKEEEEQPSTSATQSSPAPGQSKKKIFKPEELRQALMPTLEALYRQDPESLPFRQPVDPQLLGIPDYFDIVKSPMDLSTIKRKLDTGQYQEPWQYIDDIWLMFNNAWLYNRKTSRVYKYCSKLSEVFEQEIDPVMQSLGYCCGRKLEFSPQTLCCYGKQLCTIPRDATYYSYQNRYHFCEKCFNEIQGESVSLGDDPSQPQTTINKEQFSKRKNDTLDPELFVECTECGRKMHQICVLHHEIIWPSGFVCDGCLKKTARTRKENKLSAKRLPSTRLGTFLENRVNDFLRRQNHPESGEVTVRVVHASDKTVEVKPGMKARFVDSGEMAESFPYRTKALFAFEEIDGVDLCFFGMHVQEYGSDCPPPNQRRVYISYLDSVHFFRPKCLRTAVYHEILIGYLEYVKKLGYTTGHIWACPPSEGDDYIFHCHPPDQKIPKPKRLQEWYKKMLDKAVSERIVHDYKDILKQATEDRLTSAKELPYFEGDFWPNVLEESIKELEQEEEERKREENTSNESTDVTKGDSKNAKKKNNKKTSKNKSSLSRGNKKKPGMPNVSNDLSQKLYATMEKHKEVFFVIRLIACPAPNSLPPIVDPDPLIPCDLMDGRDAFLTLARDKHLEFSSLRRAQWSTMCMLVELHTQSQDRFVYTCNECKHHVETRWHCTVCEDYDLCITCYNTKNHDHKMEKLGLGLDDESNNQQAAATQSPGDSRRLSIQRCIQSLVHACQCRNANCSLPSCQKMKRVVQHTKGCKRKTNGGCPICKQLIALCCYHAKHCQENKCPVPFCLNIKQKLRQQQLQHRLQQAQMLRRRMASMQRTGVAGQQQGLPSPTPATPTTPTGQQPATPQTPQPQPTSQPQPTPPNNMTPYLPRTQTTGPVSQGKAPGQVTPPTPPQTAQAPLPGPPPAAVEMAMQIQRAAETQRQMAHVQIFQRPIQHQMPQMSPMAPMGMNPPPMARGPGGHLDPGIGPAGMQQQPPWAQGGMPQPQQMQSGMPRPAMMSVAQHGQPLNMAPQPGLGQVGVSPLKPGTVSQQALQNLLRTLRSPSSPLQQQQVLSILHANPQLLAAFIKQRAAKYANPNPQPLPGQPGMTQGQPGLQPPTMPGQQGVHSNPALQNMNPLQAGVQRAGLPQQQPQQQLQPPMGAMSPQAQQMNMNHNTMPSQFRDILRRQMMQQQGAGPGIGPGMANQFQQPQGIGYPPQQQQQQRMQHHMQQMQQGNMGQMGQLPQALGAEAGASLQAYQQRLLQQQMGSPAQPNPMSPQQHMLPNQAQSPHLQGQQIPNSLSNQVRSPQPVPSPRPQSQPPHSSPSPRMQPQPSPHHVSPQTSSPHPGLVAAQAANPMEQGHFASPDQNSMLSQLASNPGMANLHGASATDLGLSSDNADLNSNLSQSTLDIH
UniProt Q6DIC0: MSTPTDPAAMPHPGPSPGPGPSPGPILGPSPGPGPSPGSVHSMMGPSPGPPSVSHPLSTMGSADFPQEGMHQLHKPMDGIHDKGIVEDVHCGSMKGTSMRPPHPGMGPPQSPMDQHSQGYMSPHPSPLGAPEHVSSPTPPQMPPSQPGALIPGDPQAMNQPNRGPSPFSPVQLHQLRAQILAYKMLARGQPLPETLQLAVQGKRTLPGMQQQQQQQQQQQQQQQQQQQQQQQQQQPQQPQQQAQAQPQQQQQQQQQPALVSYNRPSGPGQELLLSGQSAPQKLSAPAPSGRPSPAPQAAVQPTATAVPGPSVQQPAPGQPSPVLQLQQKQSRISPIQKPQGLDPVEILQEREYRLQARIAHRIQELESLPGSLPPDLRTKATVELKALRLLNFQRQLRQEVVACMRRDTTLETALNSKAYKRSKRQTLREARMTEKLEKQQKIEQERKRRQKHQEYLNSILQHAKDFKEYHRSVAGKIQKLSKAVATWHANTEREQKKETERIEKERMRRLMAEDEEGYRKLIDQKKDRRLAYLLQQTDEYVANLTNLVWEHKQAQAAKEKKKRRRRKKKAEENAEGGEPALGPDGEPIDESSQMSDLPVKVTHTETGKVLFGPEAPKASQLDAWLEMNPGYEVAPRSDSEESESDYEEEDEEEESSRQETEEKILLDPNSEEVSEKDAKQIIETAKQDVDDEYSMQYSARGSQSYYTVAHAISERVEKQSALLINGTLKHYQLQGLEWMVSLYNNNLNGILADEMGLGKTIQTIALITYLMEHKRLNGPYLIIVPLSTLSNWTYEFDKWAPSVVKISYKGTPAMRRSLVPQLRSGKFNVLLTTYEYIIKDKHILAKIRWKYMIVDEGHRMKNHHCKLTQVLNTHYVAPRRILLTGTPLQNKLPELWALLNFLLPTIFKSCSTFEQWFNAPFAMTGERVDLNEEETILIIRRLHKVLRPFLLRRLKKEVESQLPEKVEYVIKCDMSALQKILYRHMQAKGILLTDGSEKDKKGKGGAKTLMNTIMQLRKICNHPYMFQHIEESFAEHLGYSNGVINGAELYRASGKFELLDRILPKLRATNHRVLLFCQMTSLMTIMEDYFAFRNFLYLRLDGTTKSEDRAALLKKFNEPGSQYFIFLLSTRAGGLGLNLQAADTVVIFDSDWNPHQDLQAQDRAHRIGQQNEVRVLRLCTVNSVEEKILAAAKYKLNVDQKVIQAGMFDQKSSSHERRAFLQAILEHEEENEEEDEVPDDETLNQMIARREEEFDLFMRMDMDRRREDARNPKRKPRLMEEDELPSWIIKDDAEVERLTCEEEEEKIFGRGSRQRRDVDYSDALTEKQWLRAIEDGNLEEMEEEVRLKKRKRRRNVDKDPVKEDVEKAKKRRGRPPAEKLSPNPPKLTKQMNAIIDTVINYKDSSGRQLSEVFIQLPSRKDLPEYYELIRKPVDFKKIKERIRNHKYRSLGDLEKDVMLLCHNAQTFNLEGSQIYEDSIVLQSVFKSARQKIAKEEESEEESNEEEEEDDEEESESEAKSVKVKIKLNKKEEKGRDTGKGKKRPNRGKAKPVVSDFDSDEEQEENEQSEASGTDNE

No constants are given. Whether binding was seen depends on the method and setting. Binding seen in cells or lysates may run through a third protein. Some results given as binding are weak or reduced against the parent protein; the word gives no strength.

What all share (assay): proximity ligation; in situ Duolink PLA (distances < 40 nm) at endogenous protein levels on primary cortical neurons fixed at DIC7, wild-type and 189N3 transgenic; interaction points counted in the nuclear body of 45 to 89 neurons
Experiment [1] concerns the target CREBBP (mouse (endogenous in primary cortical neurons)) (UniProt P45481).
The target of experiment [2] is EP300 (mouse (endogenous in primary cortical neurons)) (UniProt B2RWS6).
Experiment [3] deals with SMARCA2 (mouse (endogenous in primary cortical neurons)) (UniProt Q6DIC0).

In the case of “DYRK1A (dual-specificity tyrosine phosphorylated and regulated kinase 1A) (from UniProt Q61214 1-763)”, the binding result in experiment [1] and in experiment [2] was “binds” throughout.
With CREBBP (from UniProt P45481 1-2441), the binding entry in experiment [3] is on record as “binds”.
